# From PubChem BioAssay AID493014 (National Center for Advancing Translational Sciences (NCATS), 2011)
# The other results are listed elsewhere or left out. Shown are side measurements of this screen, not its main read-out; they come without a call. Compounds called inactive in the main read-out are mostly missing here. Words in brackets tell the shape of the fitted curve; partial curves, single points and poor fits give uncertain potencies.
# Test: qHTS Assay to Find Inhibitors of Chronic Active B-Cell Receptor Signaling
# Settings: ABC-DLBCL IkBa-CBG/CBR reporter, luminescence ratio (green luciferase fused to IkBa over red control in TMD8 lymphoma cells), 4 h; measured here: CBR red luminescence, cell number
# In short: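 TMD8 ABC-DLBCL cells carrying doxycycline-inducible green luciferase fused to IkappaBalpha plus unfused red luciferase were exposed to compounds (up to 46 uM) for 4 hrs at 37C. Activity came from the overlap-corrected green/red luminescence ratio.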
row,Structure (SMILES),AC50
1,COc1ccccc1CCNS(=O)(=O)CCNC(=O)c1ccc2c(c1)OCO2,"6.51 µM [rising, single point]"
2,O=c1c(C/C=C/c2ccccc2)c(O)ccn1CCc1c[nH]c2ccccc12,"35.5 µM [falling, single point]"
3,CN(C)S(=O)(=O)c1cccc(NC(=O)c2cc3c(cc2Cl)N2CCCCCC2=NS3(=O)=O)c1,"3.98 µM [rising, full curve, poor fit]"
4,CCCc1nc2sc(C(=O)OCC)c(N)c2c2c1COC(C)(C)C2,"2.91 µM [rising, partial curve, poor fit]"
5,C=C(C)C1Cc2c(C)nn(-c3nc(C)cc(C)n3)c2C1 (stereo not drawn),"10 µM [rising, single point]"
6,COc1ccc(/C=N/NC(=O)c2ccc(COc3cccc4cccnc34)cc2)cc1OC,"35.5 µM [falling, single point]"
7,C/C(=N\NC(=O)c1cc(C(C)C)[nH]n1)c1ccco1,"13 µM [falling, partial curve]"
8,Cc1cccc(C(=O)NC2CCN(CC(=O)NCc3cccs3)CC2)c1,"14.1 µM [falling, partial curve, poor fit]"
9,Cc1n[nH]c(C)c1CCCOc1ccccc1,"16.4 µM [rising, single point]"
10,Cc1ccc(-c2nc3ccccc3n3c(C)nnc23)cc1,"5.62 µM [falling, single point]"
11,Cc1cc2cc(OCC(=O)O)ccc2n1C,"2.31 µM [falling, partial curve, poor fit]"
12,CC(Sc1cccc[n+]1[O-])C(=O)NC1CCCCC1C (stereo not drawn),"7.31 µM [rising, partial curve]"
13,COCCn1c(=O)[nH]c(=O)c2c(C(F)(F)F)cc(-c3cccs3)nc21,"20.6 µM [rising, single point]"
14,COc1ccc(CNC(=O)CN(c2ccc(C(C)=O)cc2)S(=O)(=O)c2ccc(C)cc2)cc1OC,"25.9 µM [rising, single point]"
15,O=C(Nc1ccccc1C(=O)Nc1ccc2c(c1)OCO2)c1ccco1,"35.5 µM [falling, single point]"
16,COc1ccccc1C(=O)Nc1ccc2c(c1)nc1n2CCSC1,"12.6 µM [falling, single point]"
17,CCC(Cc1ccccc1)NS(=O)(=O)c1ccc2c(c1)NC(=O)C(C)S2 (stereo not drawn),"3.98 µM [falling, full curve]"
18,COc1cc2sc(-c3ccc(S(C)(=O)=O)cc3)c(C(=O)NCCCCO)c2cc1OC,"18.4 µM [rising, single point]"

# Ordered by molar mass (descending): part of the list above
row,Structure (SMILES),AC50
3,CN(C)S(=O)(=O)c1cccc(NC(=O)c2cc3c(cc2Cl)N2CCCCCC2=NS3(=O)=O)c1,"3.98 µM [rising, full curve, poor fit]"
12,CC(Sc1cccc[n+]1[O-])C(=O)NC1CCCCC1C (stereo not drawn),"7.31 µM [rising, partial curve]"
7,C/C(=N\NC(=O)c1cc(C(C)C)[nH]n1)c1ccco1,"13 µM [falling, partial curve]"
